Data on one substance can be found in article PMC2790608.

Sequences of proteins named here, by UniProt entry; tags and fusion partners are left off.
UniProt P63208: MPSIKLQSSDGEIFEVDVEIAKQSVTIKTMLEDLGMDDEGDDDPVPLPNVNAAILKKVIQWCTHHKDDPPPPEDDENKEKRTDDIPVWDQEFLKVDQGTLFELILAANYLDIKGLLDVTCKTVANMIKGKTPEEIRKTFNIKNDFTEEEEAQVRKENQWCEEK

No constants are given. Whether binding was seen depends on the method and setting. Binding seen in cells or lysates may run through a third protein.

The test addresses 3X-Flag-bacterial alkaline phosphatase (BAP) [phosphatase: P00634]. Nature of the test: co-IP.

SKP1-GST (from UniProt P63208 1-163): the binding result is given as “no binding”.
